In PMC6873818:
The exact form of at least one protein or probe is not confirmed.

Tested on: Replication factor C (RFC) complex (Saccharomyces cerevisiae)
Assay: EMSA
Settings: 2 mM Mg2+, 25 mM Tris-HCl pH 7.5, 50 mM NaCl, 2 mM MgCl2, 2 mM DTT, 0.1 mg/mL BSA, 1 nM oligo, 0-256 nM RFC, 15 min, room temperature, 10% native gel, recombinant protein, label: 32P (T4 PNK, 5' end)

Row | Sequence | Kd (folded or branched DNA) | Kd
1 | CTCGAGGTCGTCATCGACCTCGAGATCA [dsDNA] | 1.9 nM | –
2 | CUCGAGGUCGUCAUCGACCUCGAGAUCA [dsRNA] | – | 25 nM
